The experiment deals with human GPR84 receptor (Homo sapiens, UniProt Q9NQS5). The experiment is described as follows: Gαi biosensor BRET assay (GPR84 antagonism vs agonist ZQ-16). The note with it: HEK293 cells, 200 nmol/L agonist ZQ-16; for pIC50: read-out: BRET Assay (IC50) Activity, Gαi biosensor BRET assay. For orientation: In BRET a luciferase serves as donor, and the signal depends on an acceptor being close.

By UniProt entry, the sequences of proteins in these tests, tags left out.
UniProt Q9NQS5, whole entry: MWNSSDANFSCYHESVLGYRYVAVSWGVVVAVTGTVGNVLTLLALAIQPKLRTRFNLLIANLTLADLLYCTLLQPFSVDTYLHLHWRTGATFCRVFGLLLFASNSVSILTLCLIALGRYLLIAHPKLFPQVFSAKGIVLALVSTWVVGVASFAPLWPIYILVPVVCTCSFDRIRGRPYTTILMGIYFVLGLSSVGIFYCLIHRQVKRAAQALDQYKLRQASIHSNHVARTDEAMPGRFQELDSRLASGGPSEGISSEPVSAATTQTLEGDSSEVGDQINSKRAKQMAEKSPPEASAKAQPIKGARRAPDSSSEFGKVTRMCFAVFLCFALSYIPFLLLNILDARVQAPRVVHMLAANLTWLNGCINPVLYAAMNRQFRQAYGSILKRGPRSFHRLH

A word on the pIC50: it is −log10 of the IC50, conventionally taken in molar units.

pIC50: −log10 of the molar value. The match of structure and compound is tentative. Some results are limits rather than exact numbers.

Regarding `Cc1cc(OCC(=O)N2CCC[C@H]2C(=O)O)cc(=O)n1[C@H](C)c1ccc(C#CC2CC2)cc1`, the pIC50 is 6.00 to 6.52. In addition, the “BRET Assay (% Inhibition) Activity” value (tested at 10 μM (concentration code D)) is on record as “**** (percent inhibition of >75%)”.
As for `Cc1cc(OCC(=O)N2CCC[C@@H]2CO)cc(=O)n1[C@H](C)c1ccc(C#CC2CC2)cc1`, the pIC50 is more than 6.52. Further, the “BRET Assay (% Inhibition) Activity” value (tested at 2 μM (concentration code A)) was “**** (percent inhibition of >75%)”.

(Values after patent publication US20260055117A1, “SUBSTITUTED PYRIDONE GPR84 ANTAGONISTS AND USES THEREOF” (Liminal BioSciences Limited, priority 2022, published 2026).)
